Source: patent publication US20130230899A1
No constants are given. Whether binding was seen depends on the method and setting. Some binding calls cover weakened binding; strength is not graded here.

Amino acid sequences for entries named in this document (tags omitted). A change or cut given only in a name is not applied to a line headed by its entry.
UniProt P14207: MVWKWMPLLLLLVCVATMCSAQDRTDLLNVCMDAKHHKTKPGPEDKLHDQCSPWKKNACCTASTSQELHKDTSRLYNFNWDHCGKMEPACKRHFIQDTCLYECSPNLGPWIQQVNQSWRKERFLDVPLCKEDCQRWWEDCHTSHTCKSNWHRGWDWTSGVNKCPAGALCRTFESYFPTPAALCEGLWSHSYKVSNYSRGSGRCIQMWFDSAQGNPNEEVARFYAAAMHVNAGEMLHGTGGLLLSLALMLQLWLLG

Biological target: human folate receptor β (FRβ) (human) (UniProt P14207)
Assay: hybridoma clones screened by reactivity with FRβ-expressing cells (human FRβ on B300-19); flow cytometry named, result not given

binding: binds
B1: anti-human FRβ mouse monoclonal antibody clone 36b (antibody, V domains shown)
VH: QVQLQQSGAELMKPGASLKISCKATGYTFSSYWIEWVKQRPGHGLQWIGEILPGSGSSNYNEKFKGKATFTADTSSNTAYMQLSSLTSEDSAVYYCARRGSSGSYFAMDYWGQGTSVTVSS
VL: DIQMTQSSSSFSVSLGDRVTITCKASEDIYNRLAWYQQKPGNAPRLLISGATSLETGVPLRFSGSGSGKDYTLSITSLQTEDIATYYCQQYWSTPWTFGGGTKLEIK
